{
  "sequences": {"note": "Amino acid sequences for entries named in this document (tags omitted). A change or cut given only in a name is not applied to a line headed by its entry.", "UniProt Q99MN1, whole entry": "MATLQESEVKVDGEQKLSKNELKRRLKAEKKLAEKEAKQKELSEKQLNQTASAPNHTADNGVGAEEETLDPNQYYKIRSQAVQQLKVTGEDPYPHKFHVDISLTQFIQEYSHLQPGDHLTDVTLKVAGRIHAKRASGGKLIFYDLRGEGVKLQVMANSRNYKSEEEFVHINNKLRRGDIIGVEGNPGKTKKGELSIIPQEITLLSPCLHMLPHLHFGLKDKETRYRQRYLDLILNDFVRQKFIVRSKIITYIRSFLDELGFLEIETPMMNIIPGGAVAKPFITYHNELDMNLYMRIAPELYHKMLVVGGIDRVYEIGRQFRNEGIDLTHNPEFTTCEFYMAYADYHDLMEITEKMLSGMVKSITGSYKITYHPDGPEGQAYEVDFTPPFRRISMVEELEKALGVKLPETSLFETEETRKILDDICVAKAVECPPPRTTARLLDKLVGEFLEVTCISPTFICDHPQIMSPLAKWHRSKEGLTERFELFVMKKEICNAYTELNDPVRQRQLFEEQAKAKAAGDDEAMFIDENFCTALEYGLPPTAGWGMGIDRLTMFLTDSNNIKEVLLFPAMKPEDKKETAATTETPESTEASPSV", "UniProt Q9CQ92": "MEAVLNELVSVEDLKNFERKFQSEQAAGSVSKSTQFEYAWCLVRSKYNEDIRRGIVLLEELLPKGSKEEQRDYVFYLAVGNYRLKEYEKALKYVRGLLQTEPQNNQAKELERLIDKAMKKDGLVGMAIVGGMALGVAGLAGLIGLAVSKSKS", "UniProt Q99PI4": "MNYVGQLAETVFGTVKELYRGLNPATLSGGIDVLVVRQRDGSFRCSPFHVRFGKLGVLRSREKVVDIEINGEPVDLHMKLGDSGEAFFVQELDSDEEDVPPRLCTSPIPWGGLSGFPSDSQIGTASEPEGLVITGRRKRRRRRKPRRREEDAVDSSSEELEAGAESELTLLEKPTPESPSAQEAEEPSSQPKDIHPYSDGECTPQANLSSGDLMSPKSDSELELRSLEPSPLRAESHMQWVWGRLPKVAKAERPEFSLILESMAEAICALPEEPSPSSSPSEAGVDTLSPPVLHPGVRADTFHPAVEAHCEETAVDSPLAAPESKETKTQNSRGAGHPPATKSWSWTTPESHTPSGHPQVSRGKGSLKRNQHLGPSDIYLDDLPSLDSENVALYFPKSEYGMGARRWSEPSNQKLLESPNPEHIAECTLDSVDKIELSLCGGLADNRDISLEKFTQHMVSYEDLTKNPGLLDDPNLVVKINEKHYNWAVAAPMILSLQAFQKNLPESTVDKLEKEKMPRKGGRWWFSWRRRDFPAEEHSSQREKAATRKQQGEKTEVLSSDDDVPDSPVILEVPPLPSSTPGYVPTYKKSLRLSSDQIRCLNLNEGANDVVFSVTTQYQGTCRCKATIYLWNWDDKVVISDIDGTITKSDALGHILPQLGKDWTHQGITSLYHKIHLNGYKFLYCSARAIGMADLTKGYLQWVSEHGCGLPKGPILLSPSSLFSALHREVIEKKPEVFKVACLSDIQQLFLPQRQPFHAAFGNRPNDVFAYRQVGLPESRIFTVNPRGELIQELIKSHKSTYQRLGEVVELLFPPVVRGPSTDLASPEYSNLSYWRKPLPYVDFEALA", "UniProt Q99M87": "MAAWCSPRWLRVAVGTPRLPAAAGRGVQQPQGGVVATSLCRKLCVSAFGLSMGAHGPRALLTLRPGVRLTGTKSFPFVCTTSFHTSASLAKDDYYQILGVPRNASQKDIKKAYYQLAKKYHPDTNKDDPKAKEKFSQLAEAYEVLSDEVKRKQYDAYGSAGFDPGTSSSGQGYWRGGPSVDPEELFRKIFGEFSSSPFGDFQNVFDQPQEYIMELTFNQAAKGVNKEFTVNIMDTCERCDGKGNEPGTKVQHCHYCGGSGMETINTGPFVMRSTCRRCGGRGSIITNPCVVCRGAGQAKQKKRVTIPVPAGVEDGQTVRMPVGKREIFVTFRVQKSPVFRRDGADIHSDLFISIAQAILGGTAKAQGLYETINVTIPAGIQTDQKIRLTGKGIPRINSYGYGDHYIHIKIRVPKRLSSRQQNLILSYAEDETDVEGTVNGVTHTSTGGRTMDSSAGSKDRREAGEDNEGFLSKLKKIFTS", "UniProt Q99LP6": "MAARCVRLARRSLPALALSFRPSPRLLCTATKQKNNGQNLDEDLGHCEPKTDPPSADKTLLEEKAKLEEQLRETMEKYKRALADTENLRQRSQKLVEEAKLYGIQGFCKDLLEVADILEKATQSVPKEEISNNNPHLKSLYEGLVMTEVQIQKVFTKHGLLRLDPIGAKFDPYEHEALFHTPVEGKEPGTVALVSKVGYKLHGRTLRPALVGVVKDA", "UniProt Q9CQX8": "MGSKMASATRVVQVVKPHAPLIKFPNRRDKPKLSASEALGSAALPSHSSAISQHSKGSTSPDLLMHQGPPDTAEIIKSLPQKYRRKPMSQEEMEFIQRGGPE", "UniProt Q9CQB7": "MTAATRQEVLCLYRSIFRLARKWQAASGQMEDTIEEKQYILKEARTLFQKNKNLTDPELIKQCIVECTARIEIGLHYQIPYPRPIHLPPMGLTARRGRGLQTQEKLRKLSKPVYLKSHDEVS", "UniProt Q9CQP3": "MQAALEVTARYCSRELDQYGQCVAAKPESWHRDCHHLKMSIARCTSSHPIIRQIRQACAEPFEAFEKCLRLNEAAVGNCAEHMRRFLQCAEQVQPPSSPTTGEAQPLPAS", "UniProt Q9CPT3": "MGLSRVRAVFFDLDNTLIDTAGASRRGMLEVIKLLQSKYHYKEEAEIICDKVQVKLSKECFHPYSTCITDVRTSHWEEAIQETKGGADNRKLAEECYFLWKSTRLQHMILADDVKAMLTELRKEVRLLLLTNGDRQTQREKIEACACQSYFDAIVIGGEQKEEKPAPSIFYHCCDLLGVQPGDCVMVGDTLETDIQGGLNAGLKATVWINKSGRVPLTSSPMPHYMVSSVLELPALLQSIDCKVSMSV", "UniProt Q9CQT5": "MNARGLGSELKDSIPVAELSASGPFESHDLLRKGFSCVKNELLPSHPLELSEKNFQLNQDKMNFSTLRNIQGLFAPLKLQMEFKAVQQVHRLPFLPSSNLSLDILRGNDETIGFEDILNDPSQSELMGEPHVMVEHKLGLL", "UniProt Q9CQ73": "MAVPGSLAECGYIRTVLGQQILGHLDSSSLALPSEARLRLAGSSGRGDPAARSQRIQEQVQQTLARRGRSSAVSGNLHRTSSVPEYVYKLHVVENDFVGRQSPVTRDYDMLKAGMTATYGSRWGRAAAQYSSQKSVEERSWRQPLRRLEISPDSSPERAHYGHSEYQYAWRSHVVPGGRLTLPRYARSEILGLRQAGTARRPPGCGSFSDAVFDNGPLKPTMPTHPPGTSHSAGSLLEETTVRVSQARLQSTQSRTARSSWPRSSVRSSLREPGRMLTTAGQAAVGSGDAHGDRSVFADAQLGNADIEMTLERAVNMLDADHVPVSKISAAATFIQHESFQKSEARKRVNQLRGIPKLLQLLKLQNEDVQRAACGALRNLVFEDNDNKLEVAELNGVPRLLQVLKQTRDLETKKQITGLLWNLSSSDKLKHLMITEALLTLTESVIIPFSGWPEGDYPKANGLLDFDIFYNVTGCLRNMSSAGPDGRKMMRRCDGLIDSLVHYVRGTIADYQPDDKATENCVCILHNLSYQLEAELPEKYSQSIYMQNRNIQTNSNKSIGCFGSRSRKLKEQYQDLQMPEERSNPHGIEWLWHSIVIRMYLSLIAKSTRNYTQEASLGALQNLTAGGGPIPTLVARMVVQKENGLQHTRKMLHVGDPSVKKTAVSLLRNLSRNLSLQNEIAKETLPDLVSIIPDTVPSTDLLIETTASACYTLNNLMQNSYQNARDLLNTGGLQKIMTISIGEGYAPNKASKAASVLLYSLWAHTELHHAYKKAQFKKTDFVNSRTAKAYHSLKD", "UniProt Q9CQY1, whole entry": "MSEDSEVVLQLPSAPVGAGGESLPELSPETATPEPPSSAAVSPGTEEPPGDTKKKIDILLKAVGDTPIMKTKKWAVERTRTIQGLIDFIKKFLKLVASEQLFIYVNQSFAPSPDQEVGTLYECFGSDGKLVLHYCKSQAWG", "UniProt Q9CQY2": "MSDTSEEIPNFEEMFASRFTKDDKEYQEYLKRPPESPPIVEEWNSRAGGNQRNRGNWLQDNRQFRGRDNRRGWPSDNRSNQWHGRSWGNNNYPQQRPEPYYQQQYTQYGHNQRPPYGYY", "UniProt Q9CPR7": "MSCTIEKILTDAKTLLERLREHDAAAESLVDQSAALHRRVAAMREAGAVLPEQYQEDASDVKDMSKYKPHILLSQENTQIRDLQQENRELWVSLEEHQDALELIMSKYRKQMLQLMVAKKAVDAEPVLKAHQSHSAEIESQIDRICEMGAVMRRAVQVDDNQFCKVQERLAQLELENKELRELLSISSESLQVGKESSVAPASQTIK", "UniProt Q9CQE0": "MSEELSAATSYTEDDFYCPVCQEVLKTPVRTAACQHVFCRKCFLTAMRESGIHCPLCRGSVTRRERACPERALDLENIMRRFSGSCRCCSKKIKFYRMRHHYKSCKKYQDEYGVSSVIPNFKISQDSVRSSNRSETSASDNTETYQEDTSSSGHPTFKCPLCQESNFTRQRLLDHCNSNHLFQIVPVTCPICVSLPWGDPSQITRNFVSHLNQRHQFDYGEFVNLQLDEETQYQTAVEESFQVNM", "UniProt Q9CQF3, whole entry": "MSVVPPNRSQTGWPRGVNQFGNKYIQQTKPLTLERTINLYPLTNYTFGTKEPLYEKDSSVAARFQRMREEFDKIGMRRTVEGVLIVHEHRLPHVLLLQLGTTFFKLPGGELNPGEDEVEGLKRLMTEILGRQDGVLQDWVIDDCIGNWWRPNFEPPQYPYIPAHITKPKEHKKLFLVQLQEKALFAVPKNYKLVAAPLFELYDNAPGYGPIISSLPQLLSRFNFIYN", "UniProt Q9CR27": "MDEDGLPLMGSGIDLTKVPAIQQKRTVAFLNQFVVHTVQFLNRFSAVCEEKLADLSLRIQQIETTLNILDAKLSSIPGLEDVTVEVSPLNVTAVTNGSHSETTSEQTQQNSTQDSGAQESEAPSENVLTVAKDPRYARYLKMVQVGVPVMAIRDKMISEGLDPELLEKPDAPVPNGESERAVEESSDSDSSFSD", "UniProt Q99ML9": "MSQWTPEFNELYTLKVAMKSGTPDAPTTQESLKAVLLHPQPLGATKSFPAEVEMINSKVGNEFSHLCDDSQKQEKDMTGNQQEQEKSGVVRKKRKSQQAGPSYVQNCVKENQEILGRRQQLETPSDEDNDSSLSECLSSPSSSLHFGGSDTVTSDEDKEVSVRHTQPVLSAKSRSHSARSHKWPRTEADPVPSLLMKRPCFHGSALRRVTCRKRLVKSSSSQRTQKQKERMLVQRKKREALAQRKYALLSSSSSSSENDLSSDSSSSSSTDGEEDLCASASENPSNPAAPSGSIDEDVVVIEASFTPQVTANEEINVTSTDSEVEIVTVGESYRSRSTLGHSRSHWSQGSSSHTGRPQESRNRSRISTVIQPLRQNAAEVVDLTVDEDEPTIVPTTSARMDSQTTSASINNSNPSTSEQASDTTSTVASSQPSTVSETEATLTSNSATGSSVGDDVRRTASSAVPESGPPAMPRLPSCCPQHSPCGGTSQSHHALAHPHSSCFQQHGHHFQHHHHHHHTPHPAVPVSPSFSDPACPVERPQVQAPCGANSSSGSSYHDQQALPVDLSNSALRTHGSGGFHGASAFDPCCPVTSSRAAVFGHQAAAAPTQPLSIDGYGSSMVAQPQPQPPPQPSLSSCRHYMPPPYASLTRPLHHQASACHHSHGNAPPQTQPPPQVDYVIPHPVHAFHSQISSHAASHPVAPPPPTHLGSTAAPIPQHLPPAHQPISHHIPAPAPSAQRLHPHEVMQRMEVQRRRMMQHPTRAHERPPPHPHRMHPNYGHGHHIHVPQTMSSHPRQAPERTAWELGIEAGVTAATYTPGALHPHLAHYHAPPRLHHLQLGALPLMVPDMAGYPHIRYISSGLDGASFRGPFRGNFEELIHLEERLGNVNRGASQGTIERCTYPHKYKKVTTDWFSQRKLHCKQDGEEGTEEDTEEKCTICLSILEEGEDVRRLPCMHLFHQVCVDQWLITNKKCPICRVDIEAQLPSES", "UniProt Q9CQT2": "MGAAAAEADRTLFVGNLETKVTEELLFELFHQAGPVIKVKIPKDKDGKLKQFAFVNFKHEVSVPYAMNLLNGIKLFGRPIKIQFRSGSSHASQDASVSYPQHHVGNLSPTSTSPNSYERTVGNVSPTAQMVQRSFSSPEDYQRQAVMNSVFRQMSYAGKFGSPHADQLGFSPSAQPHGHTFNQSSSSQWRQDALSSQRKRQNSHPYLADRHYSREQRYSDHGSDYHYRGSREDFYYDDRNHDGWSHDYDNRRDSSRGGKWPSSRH", "UniProt Q99MK9": "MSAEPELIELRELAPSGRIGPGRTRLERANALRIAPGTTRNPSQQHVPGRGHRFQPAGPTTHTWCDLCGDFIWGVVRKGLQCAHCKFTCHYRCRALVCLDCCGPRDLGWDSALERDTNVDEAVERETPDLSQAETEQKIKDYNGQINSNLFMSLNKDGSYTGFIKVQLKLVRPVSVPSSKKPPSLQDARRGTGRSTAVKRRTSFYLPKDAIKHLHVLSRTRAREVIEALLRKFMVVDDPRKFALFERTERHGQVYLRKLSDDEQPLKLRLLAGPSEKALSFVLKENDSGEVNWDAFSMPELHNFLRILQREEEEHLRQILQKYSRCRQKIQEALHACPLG"},
  "source": "the supplement of paper PMC12819154",
  "about": "“High-throughput peptide-centric local stability assay extends protein–ligand identification to membrane proteins, tissues and bacteria” (Nature Structural & Molecular Biology, 2025)",
  "note": "The other results are listed elsewhere or left out. Most entries show no effect beyond the scatter of the controls.",
  "data": [
    {"compound": "CN[C@@H]1C[C@H]2O[C@@](C)([C@@H]1OC)n1c3ccccc3c3c4c(c5c6ccccc6n2c5c31)C(=O)NC4 [staurosporine]", "experiment": "log2 fold change of tryptic peptide abundance, ligand vs vehicle (limited proteolysis) (log2 ratio); higher = more trypsin-susceptible (destabilized)", "conditions": "ligand concentration: 20 uM; sample: mouse liver crude lysate; replicate design: treated separately", "values": [
      {"target": "UniProt Q99MN1 (peptide sequence: SKIITYIR, peptide start residue: 246)", "log2 fold change": 0.521},
      {"target": "UniProt Q9CQ92 (peptide sequence: KFQSEQAAGSVSK, peptide start residue: 20)", "log2 fold change": 0.286},
      {"target": "UniProt Q99PI4 (peptide sequence: GYLQWVSEHGCGLPK, peptide start residue: 698)", "log2 fold change": -0.376},
      {"target": "UniProt Q9CQJ2 (peptide sequence: FQELLLK, peptide start residue: 24)", "log2 fold change": -0.0719},
      {"target": "UniProt Q99M87 (peptide sequence: GGPSVDPEELFR, peptide start residue: 176)", "log2 fold change": -0.136},
      {"target": "UniProt Q99LP6 (peptide sequence: LEEQLRETMEK, peptide start residue: 67)", "log2 fold change": -0.361},
      {"target": "UniProt Q9CQX8 (peptide sequence: VVQVVKPHAPLIK, peptide start residue: 11)", "log2 fold change": 0.0951},
      {"target": "UniProt Q99PI5 (peptide sequence: SQHQGPDDIYLDDLK, peptide start residue: 392)", "log2 fold change": -0.117},
      {"target": "UniProt Q9CQB7 (peptide sequence: KWQAASGQMEDTIEEK, peptide start residue: 22)", "log2 fold change": 0.366},
      {"target": "UniProt Q99MY8 (peptide sequence: SQFTAESTHLNVGHR, peptide start residue: 601)", "log2 fold change": -0.48},
      {"target": "UniProt Q9CQP3 (peptide sequence: ELDQYGQCVAAKPESWHR, peptide start residue: 15)", "log2 fold change": -0.453},
      {"target": "UniProt Q9CPT3 (peptide sequence: LLLLTNGDR, peptide start residue: 127)", "log2 fold change": -0.724},
      {"target": "UniProt Q9CQT5 (peptide sequence: MNFSTLR, peptide start residue: 62)", "log2 fold change": 0.0747},
      {"target": "UniProt Q99N80 (peptide sequence: ASLEDPWQLK, peptide start residue: 68)", "log2 fold change": -0.079},
      {"target": "UniProt Q99N94 (peptide sequence: NLGVVVAPHALR, peptide start residue: 193)", "log2 fold change": 0.355},
      {"target": "UniProt Q9CQ73 (peptide sequence: SSAVSGNLHR, peptide start residue: 70)", "log2 fold change": -0.247},
      {"target": "UniProt Q9CQY1 (peptide sequence: AVGDTPIMK, peptide start residue: 62)", "log2 fold change": -0.187},
      {"target": "UniProt Q9CQY2 (peptide sequence: RGWPSDNR, peptide start residue: 71)", "log2 fold change": 0.475},
      {"target": "UniProt Q9CPW3 (peptide sequence: KLEELEPESR, peptide start residue: 103)", "log2 fold change": 0.0475},
      {"target": "UniProt Q99LJ7 (peptide sequence: LCQQTIK, peptide start residue: 478)", "log2 fold change": -0.142},
      {"target": "UniProt Q9CPR7 (peptide sequence: LREHDAAAESLVDQSAALHR, peptide start residue: 19)", "log2 fold change": -0.254},
      {"target": "UniProt Q99N95 (peptide sequence: GQPASHGQTK, peptide start residue: 226)", "log2 fold change": -0.152},
      {"target": "UniProt Q9CQE0 (peptide sequence: ALDLENIMR, peptide start residue: 72)", "log2 fold change": -0.128},
      {"target": "UniProt Q9CQF3 (peptide sequence: GVNQFGNK, peptide start residue: 16)", "log2 fold change": -0.113},
      {"target": "UniProt Q9CR27 (peptide sequence: MVQVGVPVMAIR, peptide start residue: 142)", "log2 fold change": -0.0367},
      {"target": "UniProt Q9CQH0 (peptide sequence: ADGVLVGMDGR, peptide start residue: 72)", "log2 fold change": -0.135},
      {"target": "UniProt Q99ML9 (peptide sequence: VGNEFSHLCDDSQKQEK, peptide start residue: 59)", "log2 fold change": 0.519},
      {"target": "UniProt Q9CQD4 (peptide sequence: QKNQAINFLR, peptide start residue: 58)", "log2 fold change": 0.321},
      {"target": "UniProt Q9CQT2 (peptide sequence: HEVSVPYAMNLLNGIK, peptide start residue: 59)", "log2 fold change": 0.548},
      {"target": "UniProt Q9CQV1 (peptide sequence: ALRQEFAASQAAADAR, peptide start residue: 23)", "log2 fold change": -0.091},
      {"target": "UniProt Q99MK9 (peptide sequence: KPPSLQDAR, peptide start residue: 181)", "log2 fold change": 0.291}
    ]}
  ]
}
